# Laboratory results reported in the supplement of paper PMC8426693.
# The other results are listed elsewhere or left out. Many values rest on one well or one pass, so single values are uncertain.
# How the values were obtained:
# Settings in all cases: RNA concentration 10 µM; fragment concentration 200 µM; 293 K
# SARS-CoV-2 3'-UTR RNA [1] = test: 1H chemical shift perturbation upon RNA addition; higher = stronger binding
# SARS-CoV-2 3_SL3base RNA = test: as above
# SARS-CoV-2 5'-UTR RNA = test: as above
# SARS-CoV-2 5_SL5 RNA = test: as above
# SARS-CoV-2 3'-UTR RNA [2] = test: waterLOGSY factor (bound vs free ligand) (ratio); higher = stronger binding
# SARS-CoV-2 3_SL1 RNA [3] = test: 1H chemical shift perturbation upon RNA addition; higher = stronger binding
# SARS-CoV-2 3_SL1+2 RNA = test: as above
# SARS-CoV-2 3_SL2 RNA = test: as above
# SARS-CoV-2 3_s2m RNA = test: as above
# SARS-CoV-2 5_SL1 RNA = test: as above
# SARS-CoV-2 5_SL1234 RNA = test: as above
# SARS-CoV-2 5_SL4 RNA = test: as above
# SARS-CoV-2 5_SL5b+c RNA = test: as above
# SARS-CoV-2 5_SL5stem RNA = test: as above
# SARS-CoV-2 5_SL6 RNA = test: as above
# SARS-CoV-2 5_SL7 RNA = test: as above
# SARS-CoV-2 5_SL8 RNA = test: as above
# [4] = test system: SARS-CoV-2 attenuator hairpin (att HP) RNA; test: as above
# [5] = test system: SARS-CoV-2 frameshift pseudoknot (PK) RNA; test: as above
# SARS-CoV-2 3_SL1 RNA [6] = test: waterLOGSY factor (bound vs free ligand) (ratio); higher = stronger binding
structure (smiles),measurement,setting,value
COc1ccc2sc(N)nc2c1,1H chemical shift perturbation upon RNA addition,SARS-CoV-2 3'-UTR RNA [1],8 Hz
same,1H chemical shift perturbation upon RNA addition,SARS-CoV-2 3_SL3base RNA,9 Hz
same,1H chemical shift perturbation upon RNA addition,SARS-CoV-2 5'-UTR RNA,8 Hz
same,1H chemical shift perturbation upon RNA addition,SARS-CoV-2 5_SL5 RNA,6 Hz
same,waterLOGSY factor,SARS-CoV-2 3'-UTR RNA [2],2.65
c1nc(N2CCC2)c2[nH]cnc2n1,1H chemical shift perturbation upon RNA addition,SARS-CoV-2 3'-UTR RNA [1],3 Hz
same,1H chemical shift perturbation upon RNA addition,SARS-CoV-2 5'-UTR RNA,5 Hz
same,waterLOGSY factor,SARS-CoV-2 3'-UTR RNA [2],1.53
OCc1cn(-c2ccc(Cl)c(Cl)c2)nn1,1H chemical shift perturbation upon RNA addition,SARS-CoV-2 3'-UTR RNA [1],16 Hz
same,1H chemical shift perturbation upon RNA addition,SARS-CoV-2 3_SL1 RNA [3],1 Hz
same,1H chemical shift perturbation upon RNA addition,SARS-CoV-2 3_SL1+2 RNA,10 Hz
same,1H chemical shift perturbation upon RNA addition,SARS-CoV-2 3_SL2 RNA,6 Hz
same,1H chemical shift perturbation upon RNA addition,SARS-CoV-2 3_SL3base RNA,13 Hz
same,1H chemical shift perturbation upon RNA addition,SARS-CoV-2 3_s2m RNA,5 Hz
same,1H chemical shift perturbation upon RNA addition,SARS-CoV-2 5'-UTR RNA,6 Hz
same,1H chemical shift perturbation upon RNA addition,SARS-CoV-2 5_SL1 RNA,11 Hz
same,1H chemical shift perturbation upon RNA addition,SARS-CoV-2 5_SL1234 RNA,7 Hz
same,1H chemical shift perturbation upon RNA addition,SARS-CoV-2 5_SL4 RNA,5 Hz
same,1H chemical shift perturbation upon RNA addition,SARS-CoV-2 5_SL5 RNA,9 Hz
same,1H chemical shift perturbation upon RNA addition,SARS-CoV-2 5_SL5b+c RNA,12 Hz
same,1H chemical shift perturbation upon RNA addition,SARS-CoV-2 5_SL5stem RNA,8 Hz
same,1H chemical shift perturbation upon RNA addition,SARS-CoV-2 5_SL6 RNA,8 Hz
same,1H chemical shift perturbation upon RNA addition,SARS-CoV-2 5_SL7 RNA,9 Hz
same,1H chemical shift perturbation upon RNA addition,SARS-CoV-2 5_SL8 RNA,8.14 Hz
same,1H chemical shift perturbation upon RNA addition,[4],7 Hz
same,1H chemical shift perturbation upon RNA addition,[5],1 Hz
same,waterLOGSY factor,SARS-CoV-2 3'-UTR RNA [2],11.7
same,waterLOGSY factor,SARS-CoV-2 3_SL1 RNA [6],3.26
O=C(Nc1ccc2[nH]c(=O)[nH]c2c1)c1ccco1,1H chemical shift perturbation upon RNA addition,SARS-CoV-2 3'-UTR RNA [1],8 Hz
same,1H chemical shift perturbation upon RNA addition,SARS-CoV-2 3_SL3base RNA,8 Hz
same,1H chemical shift perturbation upon RNA addition,SARS-CoV-2 5'-UTR RNA,5 Hz
same,waterLOGSY factor,SARS-CoV-2 3'-UTR RNA [2],2.02
NC(=O)c1cc(N2CCCC2)ccn1,1H chemical shift perturbation upon RNA addition,SARS-CoV-2 3'-UTR RNA [1],8 Hz
same,1H chemical shift perturbation upon RNA addition,SARS-CoV-2 3_SL1+2 RNA,7 Hz
same,1H chemical shift perturbation upon RNA addition,SARS-CoV-2 3_SL3base RNA,19 Hz
same,1H chemical shift perturbation upon RNA addition,SARS-CoV-2 3_s2m RNA,8 Hz
same,1H chemical shift perturbation upon RNA addition,SARS-CoV-2 5'-UTR RNA,23 Hz
same,1H chemical shift perturbation upon RNA addition,SARS-CoV-2 5_SL4 RNA,7 Hz
same,1H chemical shift perturbation upon RNA addition,SARS-CoV-2 5_SL5 RNA,7 Hz
same,1H chemical shift perturbation upon RNA addition,SARS-CoV-2 5_SL7 RNA,11 Hz
same,waterLOGSY factor,SARS-CoV-2 3'-UTR RNA [2],2.54
Cc1sc2ncnc(N(C)C)c2c1C,1H chemical shift perturbation upon RNA addition,SARS-CoV-2 3'-UTR RNA [1],11 Hz
same,1H chemical shift perturbation upon RNA addition,SARS-CoV-2 3_SL3base RNA,10 Hz
same,1H chemical shift perturbation upon RNA addition,SARS-CoV-2 5'-UTR RNA,6 Hz
same,1H chemical shift perturbation upon RNA addition,SARS-CoV-2 5_SL5 RNA,8 Hz
same,waterLOGSY factor,SARS-CoV-2 3'-UTR RNA [2],2.56
Cc1occc1C(=O)Nc1ccncc1,1H chemical shift perturbation upon RNA addition,SARS-CoV-2 3'-UTR RNA [1],1 Hz
same,1H chemical shift perturbation upon RNA addition,SARS-CoV-2 3_SL3base RNA,15 Hz
same,1H chemical shift perturbation upon RNA addition,SARS-CoV-2 5'-UTR RNA,9 Hz
same,1H chemical shift perturbation upon RNA addition,SARS-CoV-2 5_SL1 RNA,24 Hz
same,1H chemical shift perturbation upon RNA addition,SARS-CoV-2 5_SL5 RNA,7 Hz
same,1H chemical shift perturbation upon RNA addition,SARS-CoV-2 5_SL5stem RNA,11 Hz
same,1H chemical shift perturbation upon RNA addition,SARS-CoV-2 5_SL8 RNA,11.6 Hz
same,1H chemical shift perturbation upon RNA addition,[5],3 Hz
same,waterLOGSY factor,SARS-CoV-2 3'-UTR RNA [2],2.04
Nc1nccc(-c2ccc(Cl)cc2)n1,1H chemical shift perturbation upon RNA addition,SARS-CoV-2 3'-UTR RNA [1],18 Hz
same,1H chemical shift perturbation upon RNA addition,SARS-CoV-2 3_SL2 RNA,8 Hz
same,1H chemical shift perturbation upon RNA addition,SARS-CoV-2 3_SL3base RNA,16 Hz
same,1H chemical shift perturbation upon RNA addition,SARS-CoV-2 5'-UTR RNA,14 Hz
same,1H chemical shift perturbation upon RNA addition,SARS-CoV-2 5_SL5 RNA,15 Hz
same,1H chemical shift perturbation upon RNA addition,SARS-CoV-2 5_SL5b+c RNA,5 Hz
same,waterLOGSY factor,SARS-CoV-2 3'-UTR RNA [2],3.82
CC(=O)c1ccc(NC(=O)CN2CCCC2)cc1,1H chemical shift perturbation upon RNA addition,SARS-CoV-2 3'-UTR RNA [1],13 Hz
same,1H chemical shift perturbation upon RNA addition,SARS-CoV-2 3_SL1+2 RNA,13 Hz
same,1H chemical shift perturbation upon RNA addition,SARS-CoV-2 3_SL2 RNA,6 Hz
same,1H chemical shift perturbation upon RNA addition,SARS-CoV-2 3_SL3base RNA,23 Hz
same,1H chemical shift perturbation upon RNA addition,SARS-CoV-2 3_s2m RNA,9 Hz
same,1H chemical shift perturbation upon RNA addition,SARS-CoV-2 5'-UTR RNA,2 Hz
same,1H chemical shift perturbation upon RNA addition,SARS-CoV-2 5_SL1 RNA,8 Hz
same,1H chemical shift perturbation upon RNA addition,SARS-CoV-2 5_SL5 RNA,10 Hz
same,1H chemical shift perturbation upon RNA addition,SARS-CoV-2 5_SL7 RNA,10 Hz
same,1H chemical shift perturbation upon RNA addition,[5],7 Hz
same,waterLOGSY factor,SARS-CoV-2 3'-UTR RNA [2],1.78
Oc1ccc(CN2CCCC2)c2cccnc12,1H chemical shift perturbation upon RNA addition,SARS-CoV-2 3'-UTR RNA [1],8 Hz
same,1H chemical shift perturbation upon RNA addition,SARS-CoV-2 3_SL3base RNA,12 Hz
same,1H chemical shift perturbation upon RNA addition,SARS-CoV-2 5'-UTR RNA,19 Hz
same,waterLOGSY factor,SARS-CoV-2 3'-UTR RNA [2],1.35
CC(N)c1ccc(-c2cncnc2)cc1 (configuration not stated),1H chemical shift perturbation upon RNA addition,SARS-CoV-2 3'-UTR RNA [1],9 Hz
same,1H chemical shift perturbation upon RNA addition,SARS-CoV-2 5'-UTR RNA,19 Hz
same,waterLOGSY factor,SARS-CoV-2 3'-UTR RNA [2],1.25
CCNC1CCN(c2ccncc2)CC1,1H chemical shift perturbation upon RNA addition,SARS-CoV-2 3'-UTR RNA [1],6 Hz
same,1H chemical shift perturbation upon RNA addition,SARS-CoV-2 3_SL1 RNA [3],6 Hz
same,1H chemical shift perturbation upon RNA addition,SARS-CoV-2 3_SL1+2 RNA,21 Hz
same,1H chemical shift perturbation upon RNA addition,SARS-CoV-2 3_SL2 RNA,11 Hz
same,1H chemical shift perturbation upon RNA addition,SARS-CoV-2 3_SL3base RNA,10 Hz
same,1H chemical shift perturbation upon RNA addition,SARS-CoV-2 3_s2m RNA,12 Hz
same,1H chemical shift perturbation upon RNA addition,SARS-CoV-2 5_SL1 RNA,9 Hz
same,1H chemical shift perturbation upon RNA addition,SARS-CoV-2 5_SL5b+c RNA,10 Hz
same,1H chemical shift perturbation upon RNA addition,SARS-CoV-2 5_SL7 RNA,13 Hz
same,1H chemical shift perturbation upon RNA addition,[5],9 Hz
same,waterLOGSY factor,SARS-CoV-2 3'-UTR RNA [2],2.65
same,waterLOGSY factor,SARS-CoV-2 3_SL1 RNA [6],1.46

# Six records drawn at random from the list so far, as already listed:
structure (smiles),measurement,setting,value
NC(=O)c1cc(N2CCCC2)ccn1,1H chemical shift perturbation upon RNA addition,SARS-CoV-2 3_SL1+2 RNA,7 Hz
CC(=O)c1ccc(NC(=O)CN2CCCC2)cc1,1H chemical shift perturbation upon RNA addition,[5],7 Hz
Nc1nccc(-c2ccc(Cl)cc2)n1,1H chemical shift perturbation upon RNA addition,SARS-CoV-2 5'-UTR RNA,14 Hz
OCc1cn(-c2ccc(Cl)c(Cl)c2)nn1,1H chemical shift perturbation upon RNA addition,SARS-CoV-2 5'-UTR RNA,6 Hz
Cc1sc2ncnc(N(C)C)c2c1C,waterLOGSY factor,SARS-CoV-2 3'-UTR RNA [2],2.56
NC(=O)c1cc(N2CCCC2)ccn1,1H chemical shift perturbation upon RNA addition,SARS-CoV-2 5_SL5 RNA,7 Hz
